Assay results reported in patent US10525115B2 (Immatics Biotechnologies GmbH, priority 2014, dated 2020).

What was measured:
primary AML samples = test: HLA class II ligandome analysis (LC-MS/MS) of primary AML samples; set-up: species or system human; details: HLA class II ligandome, AML patients n=12
[1] = system: cancer tissues in comparison to non-cancerous tissues and organs; test: Presentation profile / over-presentation by label-free LC-MS (XPRESIDENT), tumor versus normal tissues, other proliferative diseases; set-up: species or system human; details: other proliferative diseases / organs (other than AML) that over- or exclusively present the peptide; Table 5

Substance | Number of positive AMLs (primary AML samples) | Proliferative disease and location thereof [1]
475 (DVNEYAPVFKEKSYK; listed as Homo sapiens) [compound 475] | 1 | brain, glioblastoma, parotid gland, pleomorphic; adenoma
579 (RRIQLVEEELDRAQER; listed as Homo sapiens) [compound 579] | 1 | pancreas, adenocarcinoma, intramuscular lipoma
491 (LNSLTYQVLDVQRYP; listed as Homo sapiens) [compound 491] | 1 | kidney, clear cell renal cell carcinoma, endometrium, adenocarcinoma
492 (LPQLVGVSTPLQG; listed as Homo sapiens) [compound 492] | 2 | kidney, clear cell renal cell carcinoma, endometrium, adenocarcinoma
456 (HLEEPLSLQELDTSSG; listed as Homo sapiens) [compound 456] | 1 | lymph node, non-Hodgkin's lymphoma
487 (SQKKTFEINPRHPLIR; listed as Homo sapiens) [compound 487] | 1 | liver, hepatocellular carcinoma, cancer, thyroid; gland, nodular hyperplasia
549 (LDFFGNGPPVNYKTG; listed as Homo sapiens) [compound 549] | 1 | lung, non-small cell lung carcinoma, bone, non- ossifying fibroma
567 (LSGVLFHSSPALQPA; listed as Homo sapiens) [compound 567] | 1 | stomach, metastatic, liver, hepatic adenoma
508 (ASHFEQMAAASMHR; listed as Homo sapiens) [compound 508] | 3 | metastatic renal cell carcinoma
469 (AEKGVRTLTAAAVSGAQ; listed as Homo sapiens) [compound 469] | 1 | pancreas, adenocarcinoma, bone, giant cell tumor; of bone
564 (IQRDILLEKKKVAQ; listed as Homo sapiens) [compound 564] | 1 | stomach, metastatic, liver, hepatic adenoma
588 (ASPSESEARFRIDSVSEGNAGPY; listed as Homo sapiens) [compound 588] | 1 | pancreas, adenocarcinoma, lipoma
482 (DSNEFSVIADPRGNT; listed as Homo sapiens) [compound 482] | 1 | liver, hepatocellular carcinoma, cancer, thyroid; gland, nodular hyperplasia
480 (DSNEFSVIADPRG; listed as Homo sapiens) [compound 480] | 1 | liver, hepatocellular carcinoma, cancer, thyroid; gland, nodular hyperplasia
476 (HRSFVDLSGHNLA; listed as Homo sapiens) [compound 476] | 1 | brain, glioblastoma, parotid gland, pleomorphic; adenoma
454 (EEPLSLQELDTSSG; listed as Homo sapiens) [compound 454] | 4 | lymph node, non-Hodgkin's lymphoma
448 (APVELILSDETLPAPE; listed as Homo sapiens) [compound 448] | 3 | liver, hepatocellular carcinoma, cancer
479 (ALPEFDGKRFQNVAKEG; listed as Homo sapiens) [compound 479] | 1 | liver, hepatocellular carcinoma, cancer, thyroid; gland, nodular hyperplasia

Substance | Number of positive AMLs (primary AML samples) | Proliferative disease and location thereof [1]
595 (SPSESEARFRIDSVSEGNAGPY; listed as Homo sapiens) [compound 595] | 1 | pancreas, adenocarcinoma, lipoma
537 (DTSYVSLKAPLTKPL; listed as Homo sapiens) [compound 537] | 1 | liver, hepatocellular carcinoma, cancer
485 (PEFDGKRFQNVAK; listed as Homo sapiens) [compound 485] | 1 | liver, hepatocellular carcinoma, cancer, thyroid; gland, nodular hyperplasia
499 (SGPSLKGEEEPLVASEDGAVD; listed as Homo sapiens) [compound 499] | 1 | rectum, adenocarcinoma
477 (HRSFVDLSGHNLANPH; listed as Homo sapiens) [compound 477] | 1 | brain, glioblastoma, parotid gland, pleomorphic; adenoma
578 (RIQLVEEELDRAQER; listed as Homo sapiens) [compound 578] | 2 | pancreas, adenocarcinoma, intramuscular lipoma
484 (DSNEFSVIADPRGNTLG; listed as Homo sapiens) [compound 484] | 1 | liver, hepatocellular carcinoma, cancer, thyroid; gland, nodular hyperplasia
522 (GDKVYVHLKNLASRPY; listed as Homo sapiens) [compound 522] | 1 | kidney, clear cell renal cell carcinoma, liver, hepatocellular carcinoma
554 (ISDYVFNTASLVYHEE; listed as Homo sapiens) [compound 554] | 3 | liver, hepatocellular carcinoma, cancer
542 (SDTSYVSLKAPLTKPL; listed as Homo sapiens) [compound 542] | 2 | liver, hepatocellular carcinoma, cancer
473 (GVRTLTAAAVSGAQ; listed as Homo sapiens) [compound 473] | 1 | pancreas, adenocarcinoma, bone, giant cell tumor; of bone
453 (EEMRKLQATVQELQKR; listed as Homo sapiens) [compound 453] | 1 | lymph node, non-Hodgkin's lymphoma
533 (TSRLPIIDVAPLDVGAPD; listed as Homo sapiens) [compound 533] | 1 | pancreas, adenocarcinoma, chondrosarcoma
603 (FEGQFSINKVPGNFH; listed as Homo sapiens) [compound 603] | 3 | kidney, clear cell renal cell carcinoma, prostate, adenocarcinoma
577 (ADSLYVEKIDVGEAEPR; listed as Homo sapiens) [compound 577] | 3 | esophagus, adenocarcinoma
495 (RLPQLVGVSTPLQGGS; listed as Homo sapiens) [compound 495] | 1 | kidney, clear cell renal cell carcinoma, endometrium, adenocarcinoma
580 (HQPHKVTQYKKGKDSLY; listed as Homo sapiens) [compound 580] | 2 | liposarcoma
